In patent publication US20090226427A1, “NOVEL PHARMACEUTICAL COMPOSITIONS FOR MODULATING ANGIOGENESIS” (priority 1999, published 2009):

Experiments:
CMECs = settings: serum-stimulated
[1] = test system: caveolin/eNOS interaction; settings: CMECs
hsp90/eNOS interaction = experiment: hsp90/eNOS co-immunoprecipitation, CMECs; format: cell-based, Mouse; settings: CMECs exposed for 3 hours
AECs = settings: statin-exposed aortic ECs, serum-stimulated

CC(C)c1c(C(=O)Nc2ccccc2)c(-c2ccccc2)c(-c2ccc(F)cc2)n1CC[C@@H](O)C[C@@H](O)CC(=O)O [atorvastatin]
FC efflux (CMECs): failed, indeed, to modulate
cell eNOS pool bound to caveolin (reverse IP) [1]: not altered
increase of hsp90/eNOS interaction (hsp90/eNOS interaction): ~5 fold
cholesterol efflux (AECs): nearly complete blockade
